In article PMC10202954:
Results are given in words; binding and its absence hold for the method and conditions named. In cells and extracts the contact can be indirect. Some entries that bind do so weakly or less than the wild type.

Protein sequences, listed by entry. Tags and fused reporters are not part of them.
UniProt Q8IY31: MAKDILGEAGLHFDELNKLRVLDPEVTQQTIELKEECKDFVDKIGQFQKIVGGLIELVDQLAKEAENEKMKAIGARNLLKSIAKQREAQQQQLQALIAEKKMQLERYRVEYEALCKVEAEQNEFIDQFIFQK
UniProt Q99816: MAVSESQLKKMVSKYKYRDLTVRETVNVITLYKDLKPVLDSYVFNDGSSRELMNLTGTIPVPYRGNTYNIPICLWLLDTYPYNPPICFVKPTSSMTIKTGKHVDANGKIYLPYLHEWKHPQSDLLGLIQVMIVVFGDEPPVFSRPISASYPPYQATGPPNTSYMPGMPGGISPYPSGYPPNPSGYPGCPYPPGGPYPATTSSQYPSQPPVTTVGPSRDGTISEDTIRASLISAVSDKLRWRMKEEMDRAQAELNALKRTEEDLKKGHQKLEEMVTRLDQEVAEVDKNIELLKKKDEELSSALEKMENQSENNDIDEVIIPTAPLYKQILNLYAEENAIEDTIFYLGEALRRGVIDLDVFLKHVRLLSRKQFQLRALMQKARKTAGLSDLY

Assays:
[1] = molecular target: endogenous IFT20 of Jurkat cells (human (endogenous in Jurkat)) (UniProt Q8IY31); assay: co-IP; endogenous proteins; Jurkat cells unstimulated or stimulated with 1 ug/mL anti-CD3 and 1 ug/mL anti-CD28 for 24 h, lysed with 1% Triton X-100; IFT20 precipitated from 500 ug lysate on Protein A magnetic beads; immunoblot
[2] = molecular target: strep-tag II tagged IFT20, overexpressed in HEK293T cells (UniProt Q8IY31); assay: co-IP; HEK293T cells transfected for 48 h, lysed with 1% Triton X-100; strep-tag II precipitated from 1000 ug lysate on Protein A magnetic beads; immunoblot for IFT20 and TSG101

binding [1] | binding [2] | Molecule
binds | – | endogenous TSG101 of Jurkat cells (from UniProt Q99816 1-390)
– | binds | TSG101, overexpressed in HEK293T cells (protein, UniProt Q61187 1-391) MAVSESQLKKMMSKYKYRDLTVRQTVNVIAMYKDLKPVLDSYVFNDGSSRELVNLTGTIPVRYRGNIYNIPICLWLLDTYPYNPPICFVKPTSSMTIKTGKHVDANGKIYLPYLHDWKHPRSELLELIQIMIVIFGEEPPVFSRPTVSASYPPYTATGPPNTSYMPGMPSGISAYPSGYPPNPSGYPGCPYPPAGPYPATTSSQYPSQPPVTTVGPSRDGTISEDTIRASLISAVSDKLRWRMKEEMDGAQAELNALKRTEEDLKKGHQKLEEMVTRLDQEVAEVDKNIELLKKKDEELSSALEKMENQSENNDIDEVIIPTAPLYKQILNLYAEENAIEDTIFYLGEALRRGVIDLDVFLKHVRLLSRKQFQLRALMQKARKTAGLSDLY
